According to the M2OR odorant receptor database:
Where a chain is given by its changes, count along the chain named. Only a part is listed here, and it is no random draw. The calls were merged from several studies; some rest on single wells. This is one part of the list.

By UniProt entry, the sequences of proteins in these tests, tags left out. Where a name states a change or a piece, a line headed by the entry shows the natural chain unless it says otherwise.
UniProt Q8NGZ5: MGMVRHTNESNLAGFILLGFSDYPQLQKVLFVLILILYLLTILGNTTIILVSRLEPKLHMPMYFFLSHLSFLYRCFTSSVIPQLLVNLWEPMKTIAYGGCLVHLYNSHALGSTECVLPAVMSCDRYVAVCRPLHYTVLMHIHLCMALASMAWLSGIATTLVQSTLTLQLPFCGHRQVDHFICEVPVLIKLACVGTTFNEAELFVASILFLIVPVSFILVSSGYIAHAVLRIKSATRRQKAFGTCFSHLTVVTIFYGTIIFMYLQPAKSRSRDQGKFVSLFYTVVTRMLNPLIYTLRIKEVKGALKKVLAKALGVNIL

How the values were obtained:
Conditions in all cases: stereoisomer not certain
OR2C3 = system: T1, OR2C3
T1 sequence (whole entry): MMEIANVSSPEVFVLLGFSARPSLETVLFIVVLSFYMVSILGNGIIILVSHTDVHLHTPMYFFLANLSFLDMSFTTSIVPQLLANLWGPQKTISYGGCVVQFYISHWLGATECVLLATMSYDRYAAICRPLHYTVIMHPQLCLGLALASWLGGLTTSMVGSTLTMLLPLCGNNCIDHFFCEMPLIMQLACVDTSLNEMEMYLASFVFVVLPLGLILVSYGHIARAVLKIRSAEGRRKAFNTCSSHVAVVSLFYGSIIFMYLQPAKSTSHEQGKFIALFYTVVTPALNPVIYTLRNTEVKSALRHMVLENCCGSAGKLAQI
How it was run: (§1)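 Transient luciferase assays in mammalian cell lines were common, though methods varied by source. The values come from published papers and their supplementary material, with extra details from the original authors when needed. Responsive refers to a measured signal the original authors judged statistically different from baseline, and non-responsive (inactive) to the remainder.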

OR2D2 (Homo sapiens) = target: T2, OR2D2 (Homo sapiens) (UniProt Q9H210)
T2 sequence (whole entry): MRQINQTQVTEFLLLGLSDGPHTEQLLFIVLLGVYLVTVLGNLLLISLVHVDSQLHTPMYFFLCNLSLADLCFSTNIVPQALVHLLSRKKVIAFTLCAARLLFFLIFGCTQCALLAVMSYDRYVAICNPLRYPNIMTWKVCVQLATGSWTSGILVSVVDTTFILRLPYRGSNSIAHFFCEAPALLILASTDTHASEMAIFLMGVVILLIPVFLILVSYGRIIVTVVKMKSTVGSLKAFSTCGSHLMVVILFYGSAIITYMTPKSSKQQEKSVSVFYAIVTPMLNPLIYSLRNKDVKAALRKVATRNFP
How it was run: as §1

OR2D3 = system: T3, OR2D3
T3 sequence (whole entry): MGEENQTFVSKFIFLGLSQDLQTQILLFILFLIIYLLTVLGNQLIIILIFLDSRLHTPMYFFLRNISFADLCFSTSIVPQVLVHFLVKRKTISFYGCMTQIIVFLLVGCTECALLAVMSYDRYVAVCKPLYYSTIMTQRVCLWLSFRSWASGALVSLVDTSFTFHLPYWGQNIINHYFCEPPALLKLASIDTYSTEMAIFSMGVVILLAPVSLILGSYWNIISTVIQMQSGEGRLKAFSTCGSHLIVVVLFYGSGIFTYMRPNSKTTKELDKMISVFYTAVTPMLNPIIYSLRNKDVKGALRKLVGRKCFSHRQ
How it was run: as §1

OR2F1 (Homo sapiens) = target: T4, OR2F1 (Homo sapiens) (UniProt Q13607)
T4 sequence (whole entry): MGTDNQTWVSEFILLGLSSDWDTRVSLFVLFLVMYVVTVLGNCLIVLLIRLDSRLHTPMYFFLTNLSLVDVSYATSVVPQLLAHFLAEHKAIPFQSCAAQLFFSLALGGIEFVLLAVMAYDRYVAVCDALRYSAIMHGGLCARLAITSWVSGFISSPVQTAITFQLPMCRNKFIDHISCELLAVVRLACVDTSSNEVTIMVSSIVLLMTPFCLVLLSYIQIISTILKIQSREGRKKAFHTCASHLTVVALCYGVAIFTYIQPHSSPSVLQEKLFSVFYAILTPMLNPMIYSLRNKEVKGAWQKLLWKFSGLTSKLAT
How it was run: as §1

OR2F2 = system: T5, OR2F2
T5 sequence (whole entry): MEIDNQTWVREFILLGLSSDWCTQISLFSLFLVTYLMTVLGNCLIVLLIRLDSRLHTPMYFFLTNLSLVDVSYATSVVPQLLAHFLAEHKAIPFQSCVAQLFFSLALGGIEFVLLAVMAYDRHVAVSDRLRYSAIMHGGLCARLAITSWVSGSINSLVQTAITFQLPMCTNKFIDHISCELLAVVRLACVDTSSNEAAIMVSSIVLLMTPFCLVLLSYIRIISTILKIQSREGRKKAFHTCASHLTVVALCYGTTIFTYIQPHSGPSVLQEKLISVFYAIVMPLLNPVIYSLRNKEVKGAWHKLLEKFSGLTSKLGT
How it was run: as §1

OR2G2 [1] = system: T6, OR2G2
T6 sequence (whole entry): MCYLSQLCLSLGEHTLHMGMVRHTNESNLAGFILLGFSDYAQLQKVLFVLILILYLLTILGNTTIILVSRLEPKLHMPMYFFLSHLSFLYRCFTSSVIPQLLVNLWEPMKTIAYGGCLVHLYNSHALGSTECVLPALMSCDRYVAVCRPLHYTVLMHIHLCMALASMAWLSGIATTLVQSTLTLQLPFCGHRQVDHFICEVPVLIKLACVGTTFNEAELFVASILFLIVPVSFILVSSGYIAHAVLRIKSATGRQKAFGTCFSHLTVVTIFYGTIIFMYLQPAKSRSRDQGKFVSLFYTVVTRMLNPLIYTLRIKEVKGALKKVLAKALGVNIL
How it was run: as §1

OR2G2 [2] = system: T7, OR2G2; remark: listed apart in the source
T7 sequence (whole entry): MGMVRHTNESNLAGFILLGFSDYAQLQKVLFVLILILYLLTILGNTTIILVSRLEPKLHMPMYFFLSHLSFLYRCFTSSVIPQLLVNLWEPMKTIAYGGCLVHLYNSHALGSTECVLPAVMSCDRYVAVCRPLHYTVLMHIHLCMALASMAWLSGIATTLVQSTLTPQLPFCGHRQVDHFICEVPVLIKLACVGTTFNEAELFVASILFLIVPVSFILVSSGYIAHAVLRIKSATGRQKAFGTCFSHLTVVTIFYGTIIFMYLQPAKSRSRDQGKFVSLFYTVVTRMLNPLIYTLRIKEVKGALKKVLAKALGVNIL
How it was run: as §1

OR2G3 (Homo sapiens) = target: T8, OR2G3 (Homo sapiens) (UniProt Q8NGZ4)
T8 sequence (whole entry): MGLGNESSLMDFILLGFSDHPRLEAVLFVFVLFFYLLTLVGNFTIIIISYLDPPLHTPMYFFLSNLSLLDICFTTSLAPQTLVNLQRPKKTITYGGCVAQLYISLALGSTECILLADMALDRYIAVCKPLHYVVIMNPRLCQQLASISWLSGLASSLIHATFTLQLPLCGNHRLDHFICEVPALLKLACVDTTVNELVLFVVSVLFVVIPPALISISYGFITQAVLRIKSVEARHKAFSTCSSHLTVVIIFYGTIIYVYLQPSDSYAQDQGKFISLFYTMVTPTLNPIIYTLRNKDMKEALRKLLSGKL
How it was run: as §1

OR2G3 = system: T9, OR2G3
T9 sequence (whole entry): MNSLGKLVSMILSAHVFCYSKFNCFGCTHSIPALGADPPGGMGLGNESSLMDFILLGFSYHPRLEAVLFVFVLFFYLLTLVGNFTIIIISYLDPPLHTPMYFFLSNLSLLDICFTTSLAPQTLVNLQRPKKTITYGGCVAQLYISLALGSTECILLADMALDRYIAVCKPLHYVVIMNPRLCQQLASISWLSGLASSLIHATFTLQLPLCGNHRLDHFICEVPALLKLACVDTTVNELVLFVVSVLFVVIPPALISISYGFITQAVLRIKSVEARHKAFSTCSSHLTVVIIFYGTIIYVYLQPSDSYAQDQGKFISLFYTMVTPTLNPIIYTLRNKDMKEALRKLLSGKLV
How it was run: as §1

OR2G6 (Homo sapiens) = target: T10, OR2G6 (Homo sapiens) (UniProt Q5TZ20)
T10 sequence (whole entry): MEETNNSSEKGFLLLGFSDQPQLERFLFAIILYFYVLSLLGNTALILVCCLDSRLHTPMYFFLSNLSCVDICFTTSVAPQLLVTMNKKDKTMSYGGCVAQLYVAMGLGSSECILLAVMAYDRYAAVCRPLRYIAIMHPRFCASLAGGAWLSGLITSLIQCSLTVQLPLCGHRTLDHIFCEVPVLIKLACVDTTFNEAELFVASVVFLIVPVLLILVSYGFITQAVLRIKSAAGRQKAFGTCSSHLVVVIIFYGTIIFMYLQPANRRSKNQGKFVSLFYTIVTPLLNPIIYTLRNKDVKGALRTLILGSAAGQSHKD
How it was run: as §1

OR2H1 (Homo sapiens) = target: T11, OR2H1 (Homo sapiens) (UniProt Q9GZK4)
T11 sequence (whole entry): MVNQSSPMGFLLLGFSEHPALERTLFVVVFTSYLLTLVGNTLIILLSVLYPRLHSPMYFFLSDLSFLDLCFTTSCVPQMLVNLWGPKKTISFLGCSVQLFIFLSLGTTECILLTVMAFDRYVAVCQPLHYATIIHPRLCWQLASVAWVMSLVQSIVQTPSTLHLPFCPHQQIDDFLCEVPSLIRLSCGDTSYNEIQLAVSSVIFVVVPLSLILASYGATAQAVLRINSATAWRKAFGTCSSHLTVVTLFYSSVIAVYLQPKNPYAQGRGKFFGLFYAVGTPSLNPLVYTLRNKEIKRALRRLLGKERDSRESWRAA
How it was run: as §1

OR2H2 (Homo sapiens) = target: T12, OR2H2 (Homo sapiens) (UniProt O95918)
T12 sequence (whole entry): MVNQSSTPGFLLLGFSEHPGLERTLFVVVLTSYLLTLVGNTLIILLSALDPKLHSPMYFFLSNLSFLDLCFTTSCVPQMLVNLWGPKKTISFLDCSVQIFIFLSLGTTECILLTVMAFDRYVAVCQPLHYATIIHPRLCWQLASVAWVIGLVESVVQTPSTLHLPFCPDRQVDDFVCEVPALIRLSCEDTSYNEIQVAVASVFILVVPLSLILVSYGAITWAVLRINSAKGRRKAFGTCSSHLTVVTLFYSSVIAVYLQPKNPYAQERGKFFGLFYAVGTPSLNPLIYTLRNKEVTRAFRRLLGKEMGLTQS
How it was run: as §1

OR2H2 = system: T13, OR2H2
T13 sequence (whole entry): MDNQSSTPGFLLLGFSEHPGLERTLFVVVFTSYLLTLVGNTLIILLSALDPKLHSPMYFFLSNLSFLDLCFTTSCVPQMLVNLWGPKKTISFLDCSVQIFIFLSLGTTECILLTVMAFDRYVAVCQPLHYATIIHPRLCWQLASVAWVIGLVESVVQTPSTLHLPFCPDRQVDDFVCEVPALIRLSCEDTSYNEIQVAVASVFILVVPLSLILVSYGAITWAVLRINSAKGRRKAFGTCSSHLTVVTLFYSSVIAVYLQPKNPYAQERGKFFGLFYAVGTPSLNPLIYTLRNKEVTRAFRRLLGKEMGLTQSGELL
How it was run: as §1

OR2D3 (Homo sapiens) = OR2D3 (Homo sapiens) (UniProt Q8NGH3)
How it was run: as §1

OR2F2 (Homo sapiens) = OR2F2 (Homo sapiens) (UniProt O95006)
How it was run: as §1

OR2G2 (Homo sapiens) = target: T14, OR2G2 (Homo sapiens) (UniProt Q8NGZ5)
T14 sequence (whole entry): T7 sequence (whole entry) with A24P, P167L, G236R
How it was run: as §1
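Further: active if original authors judged signal statistically different from baseline.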

Row | SMILES | odorant receptor agonist call (OR2C3) | odorant receptor agonist call (OR2D2 (Homo sapiens)) | odorant receptor agonist call (OR2D3) | odorant receptor agonist call (OR2F1 (Homo sapiens)) | odorant receptor agonist call (OR2F2) | odorant receptor agonist call (OR2G2 [1]) | odorant receptor agonist call (OR2G2 [2]) | odorant receptor agonist call (OR2G3 (Homo sapiens)) | odorant receptor agonist call (OR2G3) | odorant receptor agonist call (OR2G6 (Homo sapiens)) | odorant receptor agonist call (OR2H1 (Homo sapiens)) | odorant receptor agonist call (OR2H2 (Homo sapiens)) | odorant receptor agonist call (OR2H2) | odorant receptor agonist call (OR2D3 (Homo sapiens)) | odorant receptor agonist call (OR2F2 (Homo sapiens)) | odorant receptor agonist call (OR2G2 (Homo sapiens))
1 | CC(C)=CCCC(C)=CC=O | inactive | active | inactive | inactive | inactive | inactive | inactive | inactive | inactive | inactive | inactive | inactive | inactive | – | – | –
2 | C=C(C)C1CCC2=CC(=O)CC(C)C2(C)C1 (stereo unspecified) | active | inactive | – | – | – | – | – | – | – | – | – | – | – | – | – | –
3 | CC12C=CCC1C1CCC3CC(=O)CCC3(C)C1CC2 (stereo unspecified) | inactive | inactive | inactive | inactive | inactive | inactive | inactive | inactive | inactive | inactive | inactive | inactive | inactive | inactive | inactive | inactive
